At least one structure is not confirmed: it was looked up by name or label, or the drawing left a doubt.
Test system: HMOX1 gene transcription in IMR90 lung fibroblast cells
Assay: PRO-seq transcriptional response (HMOX1) in IMR90 cells
Type: cell-based
Conditions: one hour, RSL3 1 μM, ML162 1 μM, erastin 10 μM
Excerpt: Expression of heme oxygenase 1 (HMOX1) mRNA may be used as a molecular response biomarker for induction of ferroptosis by direct inhibition of GPX4. To distinguish the transcriptional responses elicited by direct versus indirect inhibitors of GPX4, we profiled two direct GPX4 inhibitors, RSL3 and ML162, as well as one system Xc inhibitor, erastin, by Precision Run On followed by sequencing (PRO-seq) in IMR90 lung fibroblast cells. Briefly, IMR90 lung fibroblasts cells (a ferroptosis sensitive cell line) were treated with GPX inhibitors (RSL3 1 μM, ML162 1 μM) or system Xc inhibitor (erastin 10 µM) for one hour and samples were subjected to PRO-seq.

CCOc1ccccc1-n1c(C(C)N2CCN(C(=O)COc3ccc(Cl)cc3)CC2)nc2ccccc2c1=O (stereo not shown) [erastin]
HMOX1 transcriptional activation (PRO-seq): no HMOX1 induction was observed
